From article PMC12848524
These are yes or no findings as the source states them, for the method shown. Binding seen in cells or lysates may run through a third protein. Some entries that bind do so weakly or less than the wild type.

Protein sequences, listed by entry. Tags and fused reporters are not part of them. Lines headed by an entry give the natural chain unless they say otherwise; changes in a name come on top.
UniProt Q9NP72: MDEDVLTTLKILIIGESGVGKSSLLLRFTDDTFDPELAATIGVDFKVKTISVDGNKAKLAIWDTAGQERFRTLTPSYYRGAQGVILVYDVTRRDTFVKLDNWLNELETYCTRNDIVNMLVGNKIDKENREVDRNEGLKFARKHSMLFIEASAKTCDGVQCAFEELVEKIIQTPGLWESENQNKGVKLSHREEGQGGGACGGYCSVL
UniProt P33175: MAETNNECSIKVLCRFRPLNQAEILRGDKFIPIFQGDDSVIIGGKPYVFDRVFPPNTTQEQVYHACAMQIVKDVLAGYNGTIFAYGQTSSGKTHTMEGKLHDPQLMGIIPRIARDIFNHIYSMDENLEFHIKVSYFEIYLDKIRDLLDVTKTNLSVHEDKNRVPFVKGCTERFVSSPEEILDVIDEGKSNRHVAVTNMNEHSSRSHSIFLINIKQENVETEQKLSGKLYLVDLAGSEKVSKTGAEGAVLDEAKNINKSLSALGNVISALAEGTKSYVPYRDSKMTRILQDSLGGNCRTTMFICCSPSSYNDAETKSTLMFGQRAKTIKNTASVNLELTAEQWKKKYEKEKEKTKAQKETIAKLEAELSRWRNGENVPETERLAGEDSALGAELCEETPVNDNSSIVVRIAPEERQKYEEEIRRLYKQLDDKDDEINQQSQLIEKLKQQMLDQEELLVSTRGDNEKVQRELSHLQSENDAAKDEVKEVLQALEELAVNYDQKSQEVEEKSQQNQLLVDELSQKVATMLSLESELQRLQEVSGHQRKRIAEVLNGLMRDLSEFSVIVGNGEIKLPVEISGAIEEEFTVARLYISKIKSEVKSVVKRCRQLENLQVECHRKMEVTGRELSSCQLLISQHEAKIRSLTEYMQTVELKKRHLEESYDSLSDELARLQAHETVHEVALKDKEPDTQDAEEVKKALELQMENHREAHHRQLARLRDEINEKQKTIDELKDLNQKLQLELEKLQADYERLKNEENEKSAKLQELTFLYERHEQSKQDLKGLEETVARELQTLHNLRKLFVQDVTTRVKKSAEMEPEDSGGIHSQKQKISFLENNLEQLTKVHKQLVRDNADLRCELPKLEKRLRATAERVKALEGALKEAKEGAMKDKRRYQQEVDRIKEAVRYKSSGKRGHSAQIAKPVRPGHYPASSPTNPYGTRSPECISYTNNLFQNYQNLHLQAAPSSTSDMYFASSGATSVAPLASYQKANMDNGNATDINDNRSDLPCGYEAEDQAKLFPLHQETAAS

Legend:
Assay in all cases: pull-down; GST-tagged Rab18 (WT, Q67L, S22N) incubated with mouse brain lysates; bound proteins immunoblotted; only the target purified
GST-Rab18 (wild type) = GST-Rab18 (wild type) (UniProt Q9NP72)
GST-Rab18Q67L = GST-Rab18Q67L (UniProt Q9NP72)
GST-Rab18S22N = GST-Rab18S22N (UniProt Q9NP72)

binding (GST-Rab18 (wild type))	binding (GST-Rab18Q67L)	binding (GST-Rab18S22N)	Molecule
binds	binds		kinesin-1 motor protein KIF5 (KIF5A) (from UniProt P33175 1-1027)
		binds	neutral sphingomyelinase 2 (nSMase2) (enzyme, UniProt Q9JJY3 1-655) MVLYTTPFPNSCLSALHAVSWALIFPCYWLVDRLLASFIPTTYEKRQRADDPCCLQLFCTVLFTPVYLALLVAALPFAFLGFIFWSPLQSARRPYSYSRLEDKNPAGGAALLSEWKGTGAGKSFCFATANVCLLPDSLARLNNVFNTQARAKEIGQRIRNGAARPQIKIYIDSPTNTSISAASFSSLVSPQGGDGSRAVPGSIKRTASVEYKGDGGRHPSDEAANGPASGEQADGSLEDSCIVRIGGEEGGRPQEADDPAAGSQARNGAGGTPKGQTPNHNQRDGDSGSLGSPSASRESLVKARAGQDSGGSGEPGANSKLLYKTSVVKKAAARRRRHPDEAFDHEVSAFFPANLDFLCLQEVFDKRAAAKLKEQLHGYFEYILYDVGVYGCHGCCNFKCLNSGLFFASRYPVMDVAYHCYPNGCSFDALASKGALFLKVQVGSTPQDQRIVGYIACTHLHAPPEDSAVRCEQLDLLQDWLADFRKSTSSTSTANPEELVVFDVICGDLNFDNCSSDDKLEQQHSLFTRYKDPCRLGPGEEKPWAIGTLLDTNGLYDEDVCTPDNLQKVLESEEGRREYLAFPTSKSPGAGQKGRKDLLKGNGRRIDYMLHAEEGLCPDWKAEVEEFSFITQLSGLTDHLPVAMRLMVSAGEEEA
